This note sets out measurements from publication PMC3072370.

Chains of the proteins cited; added tags and fusions are not shown. Residues count along the entry.
UniProt P63165, residues 1-97: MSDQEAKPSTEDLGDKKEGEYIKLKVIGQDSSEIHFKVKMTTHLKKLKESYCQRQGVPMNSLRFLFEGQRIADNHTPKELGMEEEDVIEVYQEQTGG
UniProt Q9C035: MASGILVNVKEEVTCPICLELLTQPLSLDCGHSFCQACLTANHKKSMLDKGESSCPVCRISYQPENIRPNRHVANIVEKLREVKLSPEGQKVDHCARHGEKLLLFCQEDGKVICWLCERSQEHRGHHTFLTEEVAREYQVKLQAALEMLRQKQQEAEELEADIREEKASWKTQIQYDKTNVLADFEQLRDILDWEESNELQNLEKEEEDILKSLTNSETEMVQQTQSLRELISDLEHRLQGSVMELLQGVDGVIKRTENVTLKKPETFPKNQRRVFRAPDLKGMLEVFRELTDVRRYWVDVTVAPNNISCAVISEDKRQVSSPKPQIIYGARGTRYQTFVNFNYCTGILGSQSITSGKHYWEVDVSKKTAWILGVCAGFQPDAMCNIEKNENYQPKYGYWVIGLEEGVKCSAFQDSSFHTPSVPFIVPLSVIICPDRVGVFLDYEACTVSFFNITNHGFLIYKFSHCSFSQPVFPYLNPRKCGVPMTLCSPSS

These are yes or no findings as the source states them, for the method shown. In cells and extracts the contact can be indirect. Some binding calls cover weakened binding; strength is not graded here.

The experiment deals with GST-SUMO-1 fusion protein (human) (UniProt P63165). Nature of the experiment: pull-down; 2 µg purified GST-SUMO1 on Glutathione Sepharose 4B with 100 µl lysate of 293T cells transfected with FLAG-TRIM5α; binding buffer 20 mM Tris-HCl pH 8.0, 100 mM KCl, 10 mM EDTA, 0.5 mM DTT, 2 hours; 4 washes with 0.2% NP-40; anti-FLAG blot; only the target purified.

With “FLAG-tagged human TRIM5α (wild type) (from UniProt Q9C035 1-493)”, the binding entry was “binds weakly”.
